Source: PubChem BioAssay AID651640 (Broad Institute, 2012)
The campaign covered roughly 350,000 compounds. About 6,000 (1.7%) were called active. Inconclusive means that the source gave no clear call. Such entries were picked first, then a sample of the others. No stated cut-off is given here; in the data, active means CPE inhibition above about 20% (passing the limit was not always enough); inconclusive means no clear call, values can overlap the other calls; tested in BHK-21 cells.

Experiment: protection of cells from dengue 2 killing – plate reader, single concentration, primary screen (AID 651640);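 further: 0% = median of neutral control wells and 100% = median of positive control wells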
Conditions: DENV2-infected cells, cytopathic effect rescue, at 9.99 µM, stronger effect = higher value

| SMILES | CPE inhibition |
| --- | --- |
| CN(C1=NC(=O)CS1)c1ccc(O)cc1 | inconclusive: 21.5% |
| C[C@H](CO)N1C[C@H](C)[C@@H](CN(C)C(=O)Nc2cccc3ccccc23)Oc2ccc(NS(=O)(=O)c3cccs3)cc2CC1=O | inconclusive: 27.8% |
| C[C@@H]1CN([C@H](C)CO)S(=O)(=O)c2ccc(C3=CCCCC3)cc2O[C@H]1CN(C)C(=O)c1ccc(F)cc1 | inactive: -8.88% |
| Cc1ccc2c(c1)N(Cc1cccc(Cl)c1)C(=O)c1cccnc1O2 | inconclusive: 26.1% |
| CCOC(=O)N1CCN(C(=O)c2ccc3c(c2)N(Cc2ccc(F)cc2)CCS3)CC1 | inconclusive: 43.7% |
| CCOCCCNC(=O)CCS(=O)(=O)Cc1ccc(C)cc1 | inconclusive: 27.2% |
| C=C1C(=O)[C@]23C[C@H]1CCC2[C@@]1(C)C(C[C@@H]3O)[C@](C)(C(=O)OC)CC[C@@H]1O (stereo partly specified) | inactive: 0.194% |
| Cc1ccc2cc(C)c(N3CCN(c4ccc(F)cc4)CC3)nc2c1 | inactive: -3.88% |
| OC[C@@H]1[C@H](c2ccccc2)C2(CN(Cc3cccnc3)C2)N1Cc1ccncc1 | active: 20.3% |
| O=[N+]([O-])c1cccc(CSC2=NCCN2S(=O)(=O)c2ccccc2)c1 | inconclusive: 21% |
| CN(C)C(=O)c1ccc(-c2ccccc2[C@@H]2[C@@H](C#N)N(C(=O)C3CC3)[C@@H]2CO)cc1 | active: 39.9% |
| O=C(NCC1CCCO1)c1ccccc1NS(=O)(=O)c1cccs1 (stereo unspecified) | inconclusive: 20.4% |
| C/C=C/c1ccc([C@@H]2[C@@H](CN(C)C(C)=O)N(C(=O)C3CC3)[C@H]2CO)cc1 | active: 41.4% |
| C[C@@H]1CN([C@H](C)CO)C(=O)c2cccc(NC(=O)C3CCCCC3)c2O[C@@H]1CN(C)S(=O)(=O)c1ccc(Cl)cc1 | inactive: 7.5% |
| C[C@@H]1CN([C@@H](C)CO)S(=O)(=O)c2ccc(C#CC3CC3)cc2O[C@H]1CN(C)Cc1cccc(F)c1 | inconclusive: 23.6% |
| COCCN(C(=O)COC(=O)/C=C/c1nc2ccccc2s1)c1c(N)n(Cc2ccccc2)c(=O)[nH]c1=O | inconclusive: 40.2% |
| CCc1cc(=O)oc2cc(C)cc(OC(C)C(=O)NC(Cc3c[nH]c4ccc(O)cc34)C(=O)O)c12 (stereo unspecified) | active: 67.7% |
| Cc1ccc(S(=O)(=O)Nc2ccc3c(c2)C(=O)N([C@H](C)CO)C[C@H](C)[C@H](CN(C)Cc2ccncc2)O3)cc1 | inconclusive: 25.3% |
| CC(=O)Nc1ccc(S(=O)(=O)NCC2CCC(C(=O)NCCCN(C)Cc3ccccc3)CC2)cc1 (stereo unspecified) | inconclusive: 22.8% |
| COc1ccccc1CNC(=O)c1ccc(NC(=O)CC2SC(N3CCCC3)=NC2=O)cc1 (stereo unspecified) | inconclusive: 33.6% |
| C[C@@H]1CN([C@H](C)CO)C(=O)c2cc(NC(=O)Nc3ccc(F)cc3)ccc2O[C@@H](C)CCCCO[C@@H]1CN(C)S(=O)(=O)c1cccs1 | active: 20.8% |
| CCC(NC(=O)c1ccccc1NC(=O)c1ccco1)C(=O)NNC(=O)c1ccncc1 (stereo unspecified) | inconclusive: 50% |
| CCOC(=O)c1c(C)n(-c2ccc(OC)cc2)c2ccc(O)c(CN(C)C)c12 | inconclusive: 23.4% |

Twelve compounds already listed, sorted by heavy-atom count, rising.

| SMILES | CPE inhibition |
| --- | --- |
| CCOCCCNC(=O)CCS(=O)(=O)Cc1ccc(C)cc1 | inconclusive: 27.2% |
| O=C(NCC1CCCO1)c1ccccc1NS(=O)(=O)c1cccs1 (stereo unspecified) | inconclusive: 20.4% |
| Cc1ccc2cc(C)c(N3CCN(c4ccc(F)cc4)CC3)nc2c1 | inactive: -3.88% |
| C=C1C(=O)[C@]23C[C@H]1CCC2[C@@]1(C)C(C[C@@H]3O)[C@](C)(C(=O)OC)CC[C@@H]1O (stereo partly specified) | inactive: 0.194% |
| CCOC(=O)N1CCN(C(=O)c2ccc3c(c2)N(Cc2ccc(F)cc2)CCS3)CC1 | inconclusive: 43.7% |
| CCC(NC(=O)c1ccccc1NC(=O)c1ccco1)C(=O)NNC(=O)c1ccncc1 (stereo unspecified) | inconclusive: 50% |
| COc1ccccc1CNC(=O)c1ccc(NC(=O)CC2SC(N3CCCC3)=NC2=O)cc1 (stereo unspecified) | inconclusive: 33.6% |
| CCc1cc(=O)oc2cc(C)cc(OC(C)C(=O)NC(Cc3c[nH]c4ccc(O)cc34)C(=O)O)c12 (stereo unspecified) | active: 67.7% |
| CC(=O)Nc1ccc(S(=O)(=O)NCC2CCC(C(=O)NCCCN(C)Cc3ccccc3)CC2)cc1 (stereo unspecified) | inconclusive: 22.8% |
| COCCN(C(=O)COC(=O)/C=C/c1nc2ccccc2s1)c1c(N)n(Cc2ccccc2)c(=O)[nH]c1=O | inconclusive: 40.2% |
| C[C@@H]1CN([C@H](C)CO)C(=O)c2cccc(NC(=O)C3CCCCC3)c2O[C@@H]1CN(C)S(=O)(=O)c1ccc(Cl)cc1 | inactive: 7.5% |
| C[C@@H]1CN([C@H](C)CO)C(=O)c2cc(NC(=O)Nc3ccc(F)cc3)ccc2O[C@@H](C)CCCCO[C@@H]1CN(C)S(=O)(=O)c1cccs1 | active: 20.8% |

(further entries)

| SMILES | CPE inhibition |
| --- | --- |
| COc1ccc(/C=C2\SC(=O)N(CC(=O)Nc3cccnc3)C2=O)cc1OC | active: 22.7% |
| Cc1noc(C)c1S(=O)(=O)Nc1ccc2c(c1)C(=O)N([C@H](C)CO)C[C@@H](C)[C@@H](CN(C)Cc1ccc(C(=O)O)cc1)OCCCC[C@@H](C)O2 | active: 38.4% |
| CCOC(=O)c1ccc2c(c1)nc(-c1ccccn1)n2CC | inactive: -5.85% |
| O=C1OC(=O)c2c(Br)c(Br)c(Br)c(Br)c21 | active: 38.9% |
| Cn1cnc(S(=O)(=O)N2CCCCN3[C@@H](CO)[C@H](c4ccc(C#CC5CCCC5)cc4)[C@@H]3C2)c1 | inconclusive: 22.6% |
| CCN(C[C@H]1N[C@H](CO)[C@H]1c1ccc(-c2cccc(F)c2)cc1)C(=O)COC | inactive: -3.7% |
| O=C(Nc1cc(F)ccc1F)N[C@@H]1C=C[C@@H](CC(=O)N2CCc3ccccc3C2)O[C@H]1CO | inconclusive: 21.5% |
| OC[C@@H]1CN(Cc2cccnc2)C[C@H](n2cnc3c(N4CCN(c5ccccc5)CC4)ncnc32)O1 | inconclusive: 70.5% |
| CC(C)C(=O)Nc1ccc2c(c1)C(=O)N(C)[C@@H]1CC[C@H](CC(=O)NCC3CC3)O[C@@H]1CO2 | inactive: 8.59% |
| N#Cc1ccccc1OCC(=O)OCC(=O)c1ccc[nH]1 | inconclusive: 77% |
| CCOC(=O)C1CCCN(c2c(N3CCOCC3)c(=O)c2=O)C1 (stereo unspecified) | active: 45.6% |
| CC(CCCN1CCCC1)Nc1ccnc2cc(Cl)ccc12 (stereo unspecified) | inconclusive: 40.7% |
| O=C(CN1CCOCC1)NCC[C@@H]1CC[C@H](NC(=O)c2ccc3c(c2)OCO3)[C@@H](CO)O1 | active: 22% |
| O=C(O)c1ccc(-c2nc(-c3ccccc3)c(-c3cccs3)[nH]2)cc1 | inconclusive: 24.4% |
| Cc1ccc(NC(=O)c2nc[nH]c2C(=O)N[C@@H](C)C(=O)OC(C)(C)C)cc1 | active: 97.6% |
| CCC(=O)N(C)C[C@H]1Oc2ncc(C#CC(C)(C)O)cc2C(=O)N([C@H](C)CO)C[C@@H]1C | inactive: 14.4% |
| COc1ccc(NS(=O)(=O)c2ccc(N3CCOCC3)c(NC(=O)c3ccc(F)cc3)c2)cc1 | inconclusive: 29.1% |
| O=C(O)CCN1CCc2ccccc2C1c1ccncc1 (stereo unspecified) | inconclusive: 21% |
| C[C@H](CO)N1C[C@H](C)[C@H](CN(C)C(=O)Nc2ccc3c(c2)OCO3)Oc2c(NS(=O)(=O)c3ccc(F)cc3)cccc2C1=O | inactive: -8.8% |
| COC(=O)[C@H](Cc1ccc(O)cc1)NC(=O)Cn1cnc2c(OCc3ccccc3)ncnc21 | inactive: -6.47% |
| O=C1[C@H]2[C@@H](c3ccccc3)N[C@]3(CCCN(Cc4ccc(Cl)cc4)C3=O)[C@H]2C(=O)N1Cc1ccccc1 | active: 44.2% |
| CCc1noc(C)c1C(=O)Nc1cc(Cl)ccc1N1CCCC1 | inconclusive: 22.6% |
| CO[C@@H]1CN(C)C(=O)c2cc(NC(=O)Nc3cccc(Cl)c3)ccc2OC[C@H](C)NC[C@@H]1C | inconclusive: 41.6% |
